# According to US11555035B2, “Heterocyclic compound and harmful arthropod-controlling agent containing same” (SUMITOMO CHEMICAL COMPANY, LIMITED, priority 2017, dated 2023):
# Some results were stated once for a whole list of compounds, not compound by compound. At least one structure is not confirmed: it was looked up by name or label, or the drawing left a doubt.
# Key:
# Format in all cases: in vivo
# [1] = tested on: cotton aphids (Aphis gossypii); assay: Test method 1: foliar spray on cucumber seedlings infested with cotton aphids; conditions: spray 10 mL/seedling, surviving insects examined 5 days after spraying, 25° C.
# [2] = tested on: cotton aphids (Aphis gossypii); assay: Test method 2: soil irrigation at plant foot of cucumber seedlings, cotton aphids; conditions: 1000 ppm, irrigation 5 mL/seedling, aphids released after 7 days, examined after additional 6 days
# [3] = tested on: brown planthopper (Nilaparvata lugens); assay: Test method 3: spray on rice seedlings, brown planthopper larvae; conditions: 500 ppm, spray 10 mL/seedling, 3rd instar larvae, after 6 days
SMILES,controlling value ([1]; 200 ppm) [%],controlling value ([1]; 500 ppm) [%],controlling value [2] [%],controlling value [3] [%]
CCS(=O)(=O)c1cc(-c2ncc(C#N)cn2)cnc1-c1nc2cc(C(F)(F)F)cnc2n1C [compound 2],≥ 90,≥ 90,≥ 90,≥ 90
CCS(=O)(=O)c1cc(-c2ccc(C#N)cn2)c(N)nc1-c1nc2cc(C(F)(F)F)cnc2n1C [compound 4],≥ 90,≥ 90,–,–
CCS(=O)(=O)c1cc(-c2ccc(C#N)cn2)c(NC)nc1-c1nc2cc(C(F)(F)F)cnc2n1C [compound 5],–,≥ 90,–,–
CCS(=O)(=O)c1cc(-c2ncc(C#N)cn2)c(N)nc1-c1nc2cc(C(F)(F)F)cnc2n1C [compound 7],≥ 90,≥ 90,≥ 90,–
CC[S+]([O-])c1cc(-c2ccc(C#N)cn2)cnc1-c1nc2cc(C(F)(F)F)cnc2n1C (stereo not shown) [compound 8],≥ 90,≥ 90,–,–
CC[S+]([O-])c1cc(-c2ncc(C#N)cn2)cnc1-c1nc2cc(C(F)(F)F)cnc2n1C (stereo not shown) [compound 9],–,≥ 90,–,–
